Here are results for five sequences from PMC4951750.

Data set [1] addresses T1, SOX9 (a.a. 1-300) (Homo sapiens) (UniProt P48436).
T1 sequence (looked up): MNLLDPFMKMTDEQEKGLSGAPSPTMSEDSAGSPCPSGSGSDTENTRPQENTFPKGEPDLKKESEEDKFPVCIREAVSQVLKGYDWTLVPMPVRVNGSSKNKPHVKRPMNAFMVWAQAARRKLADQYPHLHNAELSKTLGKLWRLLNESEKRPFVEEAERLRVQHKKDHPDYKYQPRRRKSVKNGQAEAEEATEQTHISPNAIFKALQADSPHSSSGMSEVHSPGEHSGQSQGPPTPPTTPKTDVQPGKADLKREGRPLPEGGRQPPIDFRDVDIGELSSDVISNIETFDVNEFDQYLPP
In words: EMSA supershift. Conditions: anti-SOX9 antibody, Cy3 probe; 20 mM HEPES pH 7.9, 50 mM KCl, 0.1% NP-40, 0.5 mM EDTA, 40 mM DTT, 1 mM PMSF, 30 ug BSA, 20 ng poly(dG-dC), 5 fmol probe, 20 ng SOX9, 25 ul, 10 min at 37 C; recombinant protein; residues 1-300; protein details: His-tag (pET23 vector); label: 32P-dCTP by Klenow fill-in, 5' Cy3 in Fig. S1. On the technique in general: Mobility shift assays separate free from complexed probe on a gel.

Data set [2] has as its target T1, SOX9 (a.a. 1-300) (Homo sapiens). In words: EMSA. The note with it: 20 mM HEPES pH 7.9, 50 mM KCl, 0.1% NP-40, 0.5 mM EDTA, 40 mM DTT, 1 mM PMSF, 30 ug BSA, 20 ng poly(dG-dC), 5 fmol probe, 20 ng SOX9, 25 ul, 10 min at 37 C, recombinant protein, residues 1-300, protein details: His-tag (pET23 vector), label: 32P-dCTP by Klenow fill-in.

For at least one entry, the source does not settle the construct or the ends of the probe. For some assays here: The comparison behind a weaker result is the experiment's own reference, which may not be listed here. Tags and fusion partners may be left off the protein sequences shown. For some assays here: At least one verdict rests on a figure or table, not on a statement of the authors.

As to “GGCGCTTGAGAAAAGCCCCATTCATGAGAGG (double strand) [Col2a1 intron 1 probe]”, the binding result in data set [1] and in data set [2] (5' Cy3 in Fig. S1) was “binds” throughout. “GGCCTGTTTGTGTAGGACTCCAGCCAGTTCT (double strand)”: the binding result in data set [2] (bound weakly) is “binds more weakly”. Turning to “GGTTGTGTAGGACTCCATTCAGTTCTGCGGC (double strand)”, the binding result in data set [2] (slightly reduced vs Probe A) is “binds more weakly”. Turning to “GGCCTGTTTGTGTAGGACTCCATTCAGTTCT (double strand) [Ctgf Probe B (-88/-60), printed as Probe A in Methods]”, the binding result in data set [1] and in data set [2] (5' Cy3 in Fig. S1) was “binds” throughout.

In the case of “GGTTGTGTAGGACTCCATTCAGTTCTTTGGC (double strand) [Ctgf Probe A (-83/-55), printed as Probe B in Methods]”, the binding result in data set [1] and in data set [2] (5' Cy3 in Fig. S1) was “binds” in each case.
